Measurements from publication doi:10.1101/2020.12.07.413385.
Read-outs that look alike come from different tables or passages of the source. No constants are given. Whether binding was seen depends on the method and setting. Binding seen in cells or lysates may run through a third protein. Here binding means that the protein was enriched with, or labelled near, the bait; the list need not be complete.

Protein sequences, listed by entry. Tags and fused reporters are not part of them.
UniProt Q9BVS4: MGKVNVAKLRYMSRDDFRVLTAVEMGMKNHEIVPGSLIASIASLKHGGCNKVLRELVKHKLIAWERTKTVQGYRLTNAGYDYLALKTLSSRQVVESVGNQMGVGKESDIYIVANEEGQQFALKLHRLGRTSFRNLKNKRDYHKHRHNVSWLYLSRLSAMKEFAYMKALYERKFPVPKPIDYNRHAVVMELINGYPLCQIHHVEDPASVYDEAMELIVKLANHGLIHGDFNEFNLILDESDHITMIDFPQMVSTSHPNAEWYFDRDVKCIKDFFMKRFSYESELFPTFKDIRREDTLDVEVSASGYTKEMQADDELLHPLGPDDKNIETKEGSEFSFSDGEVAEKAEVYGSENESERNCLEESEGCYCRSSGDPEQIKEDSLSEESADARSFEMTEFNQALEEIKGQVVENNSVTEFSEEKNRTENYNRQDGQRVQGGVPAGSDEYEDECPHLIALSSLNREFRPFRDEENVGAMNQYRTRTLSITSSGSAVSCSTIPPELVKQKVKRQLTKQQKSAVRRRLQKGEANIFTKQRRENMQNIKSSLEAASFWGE
UniProt Q99700: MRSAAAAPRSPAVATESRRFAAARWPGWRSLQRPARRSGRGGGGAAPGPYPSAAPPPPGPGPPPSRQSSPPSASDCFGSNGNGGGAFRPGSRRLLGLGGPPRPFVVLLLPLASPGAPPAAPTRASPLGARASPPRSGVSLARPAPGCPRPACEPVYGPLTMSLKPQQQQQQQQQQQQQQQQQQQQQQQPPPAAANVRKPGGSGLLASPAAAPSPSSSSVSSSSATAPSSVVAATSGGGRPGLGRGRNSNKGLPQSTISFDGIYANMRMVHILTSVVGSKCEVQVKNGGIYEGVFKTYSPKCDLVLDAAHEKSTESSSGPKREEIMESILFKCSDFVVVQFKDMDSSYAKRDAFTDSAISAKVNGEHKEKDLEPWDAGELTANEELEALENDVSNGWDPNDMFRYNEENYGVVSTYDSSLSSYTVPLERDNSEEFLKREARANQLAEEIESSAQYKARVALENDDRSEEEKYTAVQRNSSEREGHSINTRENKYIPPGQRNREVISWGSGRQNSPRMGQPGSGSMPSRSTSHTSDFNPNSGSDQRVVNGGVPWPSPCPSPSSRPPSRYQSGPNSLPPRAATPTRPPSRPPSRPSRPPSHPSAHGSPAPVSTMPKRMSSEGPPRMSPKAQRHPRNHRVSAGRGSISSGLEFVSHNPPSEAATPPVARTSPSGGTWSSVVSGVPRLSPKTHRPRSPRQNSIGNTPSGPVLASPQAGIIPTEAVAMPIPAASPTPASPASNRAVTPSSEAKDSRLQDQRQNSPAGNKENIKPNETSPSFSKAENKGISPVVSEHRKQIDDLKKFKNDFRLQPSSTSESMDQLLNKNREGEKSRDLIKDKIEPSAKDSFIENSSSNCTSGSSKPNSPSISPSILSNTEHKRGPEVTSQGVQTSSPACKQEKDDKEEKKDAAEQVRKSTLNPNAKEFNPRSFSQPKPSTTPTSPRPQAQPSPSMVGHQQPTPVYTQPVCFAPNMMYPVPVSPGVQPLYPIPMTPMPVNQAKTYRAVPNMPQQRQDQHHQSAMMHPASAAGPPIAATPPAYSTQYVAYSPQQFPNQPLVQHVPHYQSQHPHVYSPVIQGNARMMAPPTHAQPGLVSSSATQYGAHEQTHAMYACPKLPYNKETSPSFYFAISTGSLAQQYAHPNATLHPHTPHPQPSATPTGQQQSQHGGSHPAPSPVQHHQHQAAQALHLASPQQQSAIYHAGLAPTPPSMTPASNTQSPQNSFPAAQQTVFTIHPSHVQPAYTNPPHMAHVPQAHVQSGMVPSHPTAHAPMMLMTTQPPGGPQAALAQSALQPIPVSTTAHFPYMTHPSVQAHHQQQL
UniProt O00425: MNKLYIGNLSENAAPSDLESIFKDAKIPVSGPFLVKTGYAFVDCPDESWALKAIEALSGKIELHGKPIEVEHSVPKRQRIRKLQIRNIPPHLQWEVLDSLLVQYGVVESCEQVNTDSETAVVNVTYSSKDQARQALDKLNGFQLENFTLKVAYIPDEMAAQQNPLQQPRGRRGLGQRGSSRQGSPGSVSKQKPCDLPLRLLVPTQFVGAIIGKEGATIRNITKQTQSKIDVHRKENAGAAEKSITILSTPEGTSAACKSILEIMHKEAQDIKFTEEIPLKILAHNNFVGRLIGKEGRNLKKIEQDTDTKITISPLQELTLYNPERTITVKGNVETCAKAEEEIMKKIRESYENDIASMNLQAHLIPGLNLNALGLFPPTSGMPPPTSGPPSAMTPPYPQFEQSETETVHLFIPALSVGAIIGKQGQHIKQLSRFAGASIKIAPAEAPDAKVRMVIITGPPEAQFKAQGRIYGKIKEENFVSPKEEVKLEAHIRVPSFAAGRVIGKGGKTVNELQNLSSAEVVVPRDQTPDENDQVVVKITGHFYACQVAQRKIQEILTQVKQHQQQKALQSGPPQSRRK
UniProt Q13283: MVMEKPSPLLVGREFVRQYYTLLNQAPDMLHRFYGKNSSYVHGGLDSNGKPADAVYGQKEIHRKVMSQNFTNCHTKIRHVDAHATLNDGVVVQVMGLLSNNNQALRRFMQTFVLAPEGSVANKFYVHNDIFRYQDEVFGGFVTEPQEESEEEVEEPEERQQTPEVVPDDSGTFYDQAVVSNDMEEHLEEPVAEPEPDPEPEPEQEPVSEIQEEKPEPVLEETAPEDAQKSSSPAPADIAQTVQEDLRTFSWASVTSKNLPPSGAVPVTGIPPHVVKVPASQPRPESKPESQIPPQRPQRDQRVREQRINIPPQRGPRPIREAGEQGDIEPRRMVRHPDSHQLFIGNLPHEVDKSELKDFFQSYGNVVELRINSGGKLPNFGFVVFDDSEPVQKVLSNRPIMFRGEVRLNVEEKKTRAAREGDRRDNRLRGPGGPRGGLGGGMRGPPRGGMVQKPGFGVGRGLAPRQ
UniProt Q9NRX1: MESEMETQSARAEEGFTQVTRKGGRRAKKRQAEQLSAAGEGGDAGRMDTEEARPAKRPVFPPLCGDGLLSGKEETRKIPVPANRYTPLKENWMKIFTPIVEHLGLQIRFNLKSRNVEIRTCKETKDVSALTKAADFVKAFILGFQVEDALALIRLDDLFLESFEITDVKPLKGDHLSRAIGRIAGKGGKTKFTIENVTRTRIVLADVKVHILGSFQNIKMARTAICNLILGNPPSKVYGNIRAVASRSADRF

What was measured:
Assay in all cases: affinity purification with mass spectrometry
[1] = target: RIOK2 (right open reading frame kinase 2), endogenous (human (endogenous in U87MG-EGFRvIII, GBM301, GBM39, hNPCs)) (UniProt Q9BVS4)
[2] = target: FLAG-tagged wild-type RIOK2 (RIOK2^WT-FLAG) (human) (UniProt Q9BVS4)
[3] = target: FLAG-tagged wild-type RIOK2 (RIOK2^WT-FLAG) (human) (UniProt Q9BVS4); remark: listed apart in the source
[4] = target: RIOK2 (right open reading frame kinase 2), endogenous (human (endogenous in U87MG-EGFRvIII, GBM301, GBM39, hNPCs)) (UniProt Q9BVS4); remark: listed apart in the source

Molecule | binding [1] | binding [2] | binding [3] | binding [4]
ATXN2 (from UniProt Q99700 1-1313) | binds |  |  | 
IMP3 (IGF2BP3), endogenous (from UniProt O00425 1-579) | binds | binds |  | 
TSR1 (protein, UniProt Q2NL82 1-804) MAAHRPGPLKQQNKAHKGGRHRGRGSAQRDGKGRLALKTLSKKVRKELSRVDQRHRASQLRKQKKEAVLAEKRQLGGKDGPPHQVLVVPLHSRISLPEAMQLLQDRDTGTVHLNELGNTQNFMLLCPRLKHRWFFTSARPGDLHVVLDMAKVADTILFLLDPLEGWDSTGDYCLSCLFAQGLPTYTLAVQGISGLPLKKQIDTRKKLSKAVEKRFPHDKLLLLDTQQEAGMLLRQLANQKQQHLAFRDRRAYLFAHAVDFVPSEENNLVGTLKISGYVRGQTLNVNRLLHIVGYGDFQMKQIDAPGDPFPLNPRGIKPQKDPDMAMEICATDAVDDMEEGLKVLMKADPGRQESLQAEVIPDPMEGEQTWPTEEELSEAKDFLKESSKVVKKVPKGTSSYQAEWILDGGSQSGGEGDEYEYDDMEHEDFMEEESQDESSEEEEEYETMTIGESVHDDLYDKKVDEEAEAKMLEKYKQERLEEMFPDEVDTPRDVAARIRFQKYRGLKSFRTSPWDPKENLPQDYARIFQFQNFTNTRKSIFKEVEEKEVEGAEVGWYVTLHVSEVPVSVVECFRQGTPLIAFSLLPHEQKMSVLNMVVRRDPGNTEPVKAKEELIFHCGFRRFRASPLFSQHTAADKHKLQRFLTADMALVATVYAPITFPPASVLLFKQKSNGMHSLIATGHLMSVDPDRMVIKRVVLSGHPFKIFTKMAVVRYMFFNREDVLWFKPVELRTKWGRRGHIKEPLGTHGHMKCSFDGKLKSQDTVLMNLYKRVFPKWTYDPYVPEPVPWLKSEISSTVPQGGME |  |  |  | binds
ATXN2L (protein, UniProt Q8WWM7 1-1075) MLKPQPLQQPSQPQQPPPTQQAVARRPPGGTSPPNGGLPGPLATSAAPPGPPAAASPCLGPVAAAGSGLRRGAEGILAPQPPPPQQHQERPGAAAIGSARGQSTGKGPPQSPVFEGVYNNSRMLHFLTAVVGSTCDVKVKNGTTYEGIFKTLSSKFELAVDAVHRKASEPAGGPRREDIVDTMVFKPSDVMLVHFRNVDFNYATKDKFTDSAIAMNSKVNGEHKEKVLQRWEGGDSNSDDYDLESDMSNGWDPNEMFKFNEENYGVKTTYDSSLSSYTVPLEKDNSEEFRQRELRAAQLAREIESSPQYRLRIAMENDDGRTEEEKHSAVQRQGSGRESPSLASREGKYIPLPQRVREGPRGGVRCSSSRGGRPGLSSLPPRGPHHLDNSSPGPGSEARGINGGPSRMSPKAQRPLRGAKTLSSPSNRPSGETSVPPPPAVGRMYPPRSPKSAAPAPISASCPEPPIGSAVPTSSASIPVTSSVSDPGVGSISPASPKISLAPTDVKELSTKEPGRTLEPQELARIAGKVPGLQNEQKRFQLEELRKFGAQFKLQPSSSPENSLDPFPPRILKEEPKGKEKEVDGLLTSEPMGSPVSSKTESVSDKEDKPPLAPSGGTEGPEQPPPPCPSQTGSPPVGLIKGEDKDEGPVAEQVKKSTLNPNAKEFNPTKPLLSVNKSTSTPTSPGPRTHSTPSIPVLTAGQSGLYSPQYISYIPQIHMGPAVQAPQMYPYPVSNSVPGQQGKYRGAKGSLPPQRSDQHQPASAPPMMQAAAAAGPPLVAATPYSSYIPYNPQQFPGQPAMMQPMAHYPSQPVFAPMLQSNPRMLTSGSHPQAIVSSSTPQYPSAEQPTPQALYATVHQSYPHHATQLHAHQPQPATTPTGSQPQSQHAAPSPVQHQAGQAPHLGSGQPQQNLYHPGALTGTPPSLPPGPSAQSPQSSFPQPAAVYAIHHQQLPHGFTNMAHVTQAHVQTGITAAPPPHPGAPHPPQVMLLHPPQSHGGPPQGAVPQSGVPALSASTPSPYPYIGHPQGEQPGQAPGFPGGADDRIREFSLAGGIWHGRAEGLQVGQDARVLGGE |  |  | binds | binds

Results, then the molecule that gave them:

binding [1] | binding [2] | binding [3] | binding [4] | Molecule
binds | binds |  |  | G3BP1 (from UniProt Q13283 1-466)
binds | binds |  |  | PNO1 (from UniProt Q9NRX1 1-252)
 |  | binds | binds | NOB1 (protein, UniProt Q9ULX3 1-412) MAPVEHVVADAGAFLRHAALQDIGKNIYTIREVVTEIRDKATRRRLAVLPYELRFKEPLPEYVRLVTEFSKKTGDYPSLSATDIQVLALTYQLEAEFVGVSHLKQEPQKVKVSSSIQHPETPLHISGFHLPYKPKPPQETEKGHSACEPENLEFSSFMFWRNPLPNIDHELQELLIDRGEDVPSEEEEEEENGFEDRKDDSDDDGGGWITPSNIKQIQQELEQCDVPEDVRVGCLTTDFAMQNVLLQMGLHVLAVNGMLIREARSYILRCHGCFKTTSDMSRVFCSHCGNKTLKKVSVTVSDDGTLHMHFSRNPKVLNPRGLRYSLPTPKGGKYAINPHLTEDQRFPQLRLSQKARQKTNVFAPDYIAGVSPFVENDISSRSATLQVRDSTLGAGRRRLNPNASRKKFVKKR
 |  | binds | binds | ILF3 (protein, UniProt Q12906 1-894) MRPMRIFVNDDRHVMAKHSSVYPTQEELEAVQNMVSHTERALKAVSDWIDEQEKGSSEQAESDNMDVPPEDDSKEGAGEQKTEHMTRTLRGVMRVGLVAKGLLLKGDLDLELVLLCKEKPTTALLDKVADNLAIQLAAVTEDKYEILQSVDDAAIVIKNTKEPPLSLTIHLTSPVVREEMEKVLAGETLSVNDPPDVLDRQKCLAALASLRHAKWFQARANGLKSCVIVIRVLRDLCTRVPTWGPLRGWPLELLCEKSIGTANRPMGAGEALRRVLECLASGIVMPDGSGIYDPCEKEATDAIGHLDRQQREDITQSAQHALRLAAFGQLHKVLGMDPLPSKMPKKPKNENPVDYTVQIPPSTTYAITPMKRPMEEDGEEKSPSKKKKKIQKKEEKAEPPQAMNALMRLNQLKPGLQYKLVSQTGPVHAPIFTMSVEVDGNSFEASGPSKKTAKLHVAVKVLQDMGLPTGAEGRDSSKGEDSAEETEAKPAVVAPAPVVEAVSTPSAAFPSDATAEQGPILTKHGKNPVMELNEKRRGLKYELISETGGSHDKRFVMEVEVDGQKFQGAGSNKKVAKAYAALAALEKLFPDTPLALDANKKKRAPVPVRGGPKFAAKPHNPGFGMGGPMHNEVPPPPNLRGRGRGGSIRGRGRGRGFGGANHGGYMNAGAGYGSYGYGGNSATAGYSQFYSNGGHSGNASGGGGGGGGGSSGYGSYYQGDNYNSPVPPKHAGKKQPHGGQQKPSYGSGYQSHQGQQQSYNQSPYSNYGPPQGKQKGYNHGQGSYSYSNSYNSPGGGGGSDYNYESKFNYSGSGGRSGGNSYGSGGASYNPGSHGGYGGGSGGGSSYQGKQGGYSQSNYNSPGSGQNYSGPPSSYQSSQGGYGRNADHSMNYQYR
